Measurements reported in the supplement of paper PMC10849652.
Some of the results follow.

Sequences of proteins named here, by UniProt entry; tags and fusion partners are left off. A change or cut given only in a name is not applied to a line headed by its entry.
UniProt P23258, whole entry, looked up: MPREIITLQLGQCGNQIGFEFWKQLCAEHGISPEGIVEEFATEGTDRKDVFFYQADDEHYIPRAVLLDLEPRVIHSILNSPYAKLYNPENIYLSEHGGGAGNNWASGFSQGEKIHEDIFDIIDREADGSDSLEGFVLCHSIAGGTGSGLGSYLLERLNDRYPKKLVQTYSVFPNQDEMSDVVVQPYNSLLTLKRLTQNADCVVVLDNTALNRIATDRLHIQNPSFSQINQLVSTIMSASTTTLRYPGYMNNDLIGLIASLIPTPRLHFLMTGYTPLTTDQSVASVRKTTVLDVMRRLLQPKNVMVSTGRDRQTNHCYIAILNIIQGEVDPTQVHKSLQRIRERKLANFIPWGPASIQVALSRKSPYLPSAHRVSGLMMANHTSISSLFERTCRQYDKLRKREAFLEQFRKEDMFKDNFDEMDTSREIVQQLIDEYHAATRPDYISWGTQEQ
UniProt P51965: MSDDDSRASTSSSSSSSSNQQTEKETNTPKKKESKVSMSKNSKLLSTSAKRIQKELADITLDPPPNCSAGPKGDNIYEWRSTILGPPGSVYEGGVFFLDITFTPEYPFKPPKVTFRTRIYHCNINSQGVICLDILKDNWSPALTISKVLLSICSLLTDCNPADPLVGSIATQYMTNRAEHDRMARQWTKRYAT
UniProt P51668: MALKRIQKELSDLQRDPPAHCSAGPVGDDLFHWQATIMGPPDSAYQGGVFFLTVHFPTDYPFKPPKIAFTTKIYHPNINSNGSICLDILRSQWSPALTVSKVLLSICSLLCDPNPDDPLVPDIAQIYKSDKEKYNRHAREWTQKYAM
UniProt O14562: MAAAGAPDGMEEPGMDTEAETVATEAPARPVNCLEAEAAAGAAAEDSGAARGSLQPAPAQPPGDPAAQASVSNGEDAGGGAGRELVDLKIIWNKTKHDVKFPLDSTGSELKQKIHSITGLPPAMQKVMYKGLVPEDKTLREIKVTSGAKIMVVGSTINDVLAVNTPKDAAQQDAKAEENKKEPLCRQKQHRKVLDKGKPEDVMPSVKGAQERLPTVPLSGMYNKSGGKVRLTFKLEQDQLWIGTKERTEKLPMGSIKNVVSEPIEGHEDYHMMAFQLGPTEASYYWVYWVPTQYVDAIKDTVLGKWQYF
UniProt O94888: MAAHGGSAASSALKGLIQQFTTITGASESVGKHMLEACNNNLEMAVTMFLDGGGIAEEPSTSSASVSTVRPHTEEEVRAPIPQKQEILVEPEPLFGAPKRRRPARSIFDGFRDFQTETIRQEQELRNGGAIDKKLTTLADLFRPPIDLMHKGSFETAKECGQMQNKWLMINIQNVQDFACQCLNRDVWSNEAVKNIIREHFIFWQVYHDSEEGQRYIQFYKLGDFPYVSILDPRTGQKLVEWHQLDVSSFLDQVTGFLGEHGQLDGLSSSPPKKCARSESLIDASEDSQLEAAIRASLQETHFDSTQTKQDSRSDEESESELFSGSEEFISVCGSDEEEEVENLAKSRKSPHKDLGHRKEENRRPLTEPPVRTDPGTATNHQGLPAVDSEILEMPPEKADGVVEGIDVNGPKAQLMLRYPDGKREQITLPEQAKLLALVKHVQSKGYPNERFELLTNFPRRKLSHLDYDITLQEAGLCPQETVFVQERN
UniProt P04818: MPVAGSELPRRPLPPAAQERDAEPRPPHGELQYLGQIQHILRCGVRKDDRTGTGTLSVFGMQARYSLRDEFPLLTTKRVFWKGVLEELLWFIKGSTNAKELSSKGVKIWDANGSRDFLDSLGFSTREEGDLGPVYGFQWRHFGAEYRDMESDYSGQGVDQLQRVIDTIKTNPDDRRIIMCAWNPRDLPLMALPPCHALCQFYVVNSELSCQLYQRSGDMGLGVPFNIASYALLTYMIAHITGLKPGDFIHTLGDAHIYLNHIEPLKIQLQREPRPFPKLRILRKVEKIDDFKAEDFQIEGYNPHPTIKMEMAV
UniProt Q9BZV1: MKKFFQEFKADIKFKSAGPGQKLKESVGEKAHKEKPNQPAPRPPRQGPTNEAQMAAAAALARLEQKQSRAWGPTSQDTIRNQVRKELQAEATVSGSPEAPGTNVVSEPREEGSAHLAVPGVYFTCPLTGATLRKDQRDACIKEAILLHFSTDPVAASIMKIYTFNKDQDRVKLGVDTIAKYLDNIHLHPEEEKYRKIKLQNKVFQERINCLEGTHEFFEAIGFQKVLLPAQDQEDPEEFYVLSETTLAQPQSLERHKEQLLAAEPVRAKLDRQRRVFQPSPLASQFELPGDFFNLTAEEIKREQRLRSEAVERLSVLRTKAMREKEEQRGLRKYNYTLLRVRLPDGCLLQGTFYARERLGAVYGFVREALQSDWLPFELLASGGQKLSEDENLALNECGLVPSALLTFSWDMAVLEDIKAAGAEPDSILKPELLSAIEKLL
UniProt Q9BRA2: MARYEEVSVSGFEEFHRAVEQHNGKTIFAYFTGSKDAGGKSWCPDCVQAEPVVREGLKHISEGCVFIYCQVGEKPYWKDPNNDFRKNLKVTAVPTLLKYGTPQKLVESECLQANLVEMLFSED
UniProt P61081: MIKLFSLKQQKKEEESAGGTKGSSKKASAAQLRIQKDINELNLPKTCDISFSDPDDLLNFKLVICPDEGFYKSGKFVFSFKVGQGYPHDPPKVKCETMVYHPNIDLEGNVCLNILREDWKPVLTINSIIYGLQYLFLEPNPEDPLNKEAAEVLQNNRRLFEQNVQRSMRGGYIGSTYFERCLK
UniProt Q9NNW7, whole entry, looked up: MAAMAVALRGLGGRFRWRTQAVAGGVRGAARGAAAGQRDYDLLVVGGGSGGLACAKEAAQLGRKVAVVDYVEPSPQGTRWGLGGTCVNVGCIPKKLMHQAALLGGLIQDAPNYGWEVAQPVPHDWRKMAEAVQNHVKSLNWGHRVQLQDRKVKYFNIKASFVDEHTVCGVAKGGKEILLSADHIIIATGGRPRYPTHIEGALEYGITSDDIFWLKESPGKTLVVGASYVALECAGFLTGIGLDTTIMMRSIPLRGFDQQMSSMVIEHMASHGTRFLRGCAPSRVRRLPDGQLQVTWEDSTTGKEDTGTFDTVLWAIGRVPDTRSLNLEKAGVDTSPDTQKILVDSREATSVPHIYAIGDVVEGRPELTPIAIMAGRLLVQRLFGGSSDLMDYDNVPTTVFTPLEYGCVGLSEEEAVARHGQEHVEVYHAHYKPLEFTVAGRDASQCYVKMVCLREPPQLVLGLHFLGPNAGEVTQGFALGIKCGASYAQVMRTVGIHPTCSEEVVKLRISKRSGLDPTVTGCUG
UniProt Q7Z7E8: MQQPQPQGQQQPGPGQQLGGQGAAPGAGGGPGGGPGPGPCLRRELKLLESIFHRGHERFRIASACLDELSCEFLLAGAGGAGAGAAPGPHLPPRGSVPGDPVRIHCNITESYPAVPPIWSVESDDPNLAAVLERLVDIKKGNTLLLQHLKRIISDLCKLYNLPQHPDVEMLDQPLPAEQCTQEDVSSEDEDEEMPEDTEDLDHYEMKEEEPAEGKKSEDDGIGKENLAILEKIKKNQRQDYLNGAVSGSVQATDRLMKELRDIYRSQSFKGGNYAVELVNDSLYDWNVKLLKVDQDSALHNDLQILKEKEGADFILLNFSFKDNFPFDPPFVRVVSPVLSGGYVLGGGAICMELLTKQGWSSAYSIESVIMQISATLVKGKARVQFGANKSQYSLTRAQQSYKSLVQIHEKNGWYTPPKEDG
UniProt Q9UMX0, whole entry, looked up: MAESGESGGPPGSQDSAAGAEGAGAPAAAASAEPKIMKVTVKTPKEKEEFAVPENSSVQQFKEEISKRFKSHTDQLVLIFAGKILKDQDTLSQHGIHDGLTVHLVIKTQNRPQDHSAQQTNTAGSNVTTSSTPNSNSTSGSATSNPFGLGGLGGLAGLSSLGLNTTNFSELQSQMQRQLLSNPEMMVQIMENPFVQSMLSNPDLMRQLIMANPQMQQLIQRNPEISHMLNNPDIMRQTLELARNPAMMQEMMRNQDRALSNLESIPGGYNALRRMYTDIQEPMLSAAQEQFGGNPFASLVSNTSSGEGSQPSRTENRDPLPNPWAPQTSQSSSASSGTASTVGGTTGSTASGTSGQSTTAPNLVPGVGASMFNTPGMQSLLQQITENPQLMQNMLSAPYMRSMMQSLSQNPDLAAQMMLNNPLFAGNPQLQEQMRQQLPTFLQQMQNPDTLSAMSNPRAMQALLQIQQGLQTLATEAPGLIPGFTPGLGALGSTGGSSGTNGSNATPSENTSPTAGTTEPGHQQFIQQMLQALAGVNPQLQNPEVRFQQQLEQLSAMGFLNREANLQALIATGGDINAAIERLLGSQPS
UniProt Q9NV66: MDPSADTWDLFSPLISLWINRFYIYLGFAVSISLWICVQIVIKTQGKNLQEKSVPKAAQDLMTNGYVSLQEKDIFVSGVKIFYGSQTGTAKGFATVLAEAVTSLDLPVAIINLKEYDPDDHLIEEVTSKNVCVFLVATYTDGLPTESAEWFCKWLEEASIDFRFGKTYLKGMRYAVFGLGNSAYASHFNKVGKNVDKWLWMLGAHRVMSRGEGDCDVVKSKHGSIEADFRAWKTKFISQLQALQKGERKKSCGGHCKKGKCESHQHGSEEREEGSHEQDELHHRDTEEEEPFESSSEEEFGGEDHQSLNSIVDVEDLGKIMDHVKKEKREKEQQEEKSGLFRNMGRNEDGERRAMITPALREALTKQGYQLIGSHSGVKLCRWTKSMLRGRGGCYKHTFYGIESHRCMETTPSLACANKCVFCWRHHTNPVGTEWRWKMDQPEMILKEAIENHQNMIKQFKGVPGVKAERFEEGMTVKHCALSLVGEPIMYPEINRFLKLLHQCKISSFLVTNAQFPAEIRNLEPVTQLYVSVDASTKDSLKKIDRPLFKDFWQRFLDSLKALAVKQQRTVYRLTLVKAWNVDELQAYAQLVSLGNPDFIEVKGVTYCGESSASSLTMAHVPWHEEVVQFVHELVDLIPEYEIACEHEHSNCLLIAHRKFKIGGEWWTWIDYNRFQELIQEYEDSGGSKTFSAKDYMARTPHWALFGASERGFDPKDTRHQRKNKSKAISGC
UniProt P61077: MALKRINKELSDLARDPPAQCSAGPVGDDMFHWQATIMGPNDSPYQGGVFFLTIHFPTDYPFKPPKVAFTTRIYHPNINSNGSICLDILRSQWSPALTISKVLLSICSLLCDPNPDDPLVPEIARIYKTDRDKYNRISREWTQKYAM
UniProt Q6IBS0: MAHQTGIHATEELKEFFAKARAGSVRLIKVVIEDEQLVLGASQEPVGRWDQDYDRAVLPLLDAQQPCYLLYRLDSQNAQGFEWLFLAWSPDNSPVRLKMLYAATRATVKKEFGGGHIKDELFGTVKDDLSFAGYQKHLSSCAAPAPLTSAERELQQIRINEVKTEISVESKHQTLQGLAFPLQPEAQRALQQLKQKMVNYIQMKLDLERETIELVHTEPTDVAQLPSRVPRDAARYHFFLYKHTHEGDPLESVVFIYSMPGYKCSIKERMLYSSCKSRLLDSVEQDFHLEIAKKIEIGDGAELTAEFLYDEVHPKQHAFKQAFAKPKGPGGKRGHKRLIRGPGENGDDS

How the values were obtained:
Experiment in all cases: log2 fold change, soluble protein after heating vs DMSO (PISA); higher = thermal stabilisation; K562 lysate, 10 uM; active = over 0.2 and 3.5 SD of the protein, either way, in both replicates (recomputed)
alvocidib = compound: CN1CC[C@H](c2c(O)cc(O)c3c(=O)cc(-c4ccccc4Cl)oc23)[C@H](O)C1 [alvocidib]
Procedure, shortened: (§1)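 Pellets of K562 cells were dounce-homogenised in PBS pH 7.4 with 1 mM MgCl2, and the crude extract was held at 1 mg/mL protein for a 30 min treatment with 10 μM compound. Aliquots were heated for 3 min over 48°C-58°C and pooled before NP-40 was added to 0.5% at 4°C. The supernatant from 21,000xg for 90 min was quantified by TMTpro 16plex LC-MS/MS with channel sums equalised. Values are reported from duplicates as log-two fold change in thermal stability relative to solvent controls.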

Tubastatin A = compound: CN1CCc2c(c3ccccc3n2Cc2ccc(C(=O)NO)cc2)C1 [Tubastatin A]
Procedure, shortened: as §1

[1] = compound: CNC(=O)C1=CC=CC=C1NC2=NC(=NC=C2Cl)NC3=C(C=C(C=C3)N4CCOCC4)OC
Procedure, shortened: as §1

defactinib = compound: CNC(=O)c1ccc(Nc2ncc(C(F)(F)F)c(NCc3nccnc3N(C)S(C)(=O)=O)n2)cc1 [defactinib]
Procedure, shortened: as §1

[2] = compound: CNc1nc(-c2ccc3c(N)n[nH]c3c2)cc(N2C[C@@H](C(=O)NC3CCCCC3)CC[C@H]2C)n1
Procedure, shortened: as §1

encorafenib = compound: COC(=O)N[C@@H](C)CNc1nccc(-c2cn(C(C)C)nc2-c2cc(Cl)cc(NS(C)(=O)=O)c2F)n1 [encorafenib]
Procedure, shortened: as §1

[3] = compound: COC(=O)[C@H](CCSC)NC(=O)C1=C(C=C(C=C1)NC[C@H](CS)N)C2=CC=CC=C2
Procedure, shortened: as §1

alisertib = compound: COc1cc(Nc2ncc3c(n2)-c2ccc(Cl)cc2C(c2c(F)cccc2OC)=NC3)ccc1C(=O)O [alisertib]
Procedure, shortened: as §1

[4] = compound: COc1cc2nc(-c3cc(F)ccc3O)nc(N[C@@H]3CNC[C@H]3C(C)(C)O)c2cc1OC
Procedure, shortened: as §1

gefitinib = compound: COc1cc2ncnc(Nc3ccc(F)c(Cl)c3)c2cc1OCCCN1CCOCC1 [gefitinib]
Procedure, shortened: as §1

lapatinib = compound: CS(=O)(=O)CCNCc1ccc(-c2ccc3ncnc(Nc4ccc(OCc5cccc(F)c5)c(Cl)c4)c3c2)o1 [lapatinib]
Procedure, shortened: as §1

pictilisib = compound: CS(=O)(=O)N1CCN(Cc2cc3nc(-c4cccc5[nH]ncc45)nc(N4CCOCC4)c3s2)CC1 [pictilisib]
Procedure, shortened: as §1

crizotinib = compound: C[C@@H](Oc1cc(-c2cnn(C3CCNCC3)c2)cnc1N)c1c(Cl)ccc(F)c1Cl [crizotinib]
Procedure, shortened: as §1

[5] = compound: C[C@H](C1=CC=C(C=C1)C(=O)NC2=C3C=CNC3=NC=C2)N
Procedure, shortened: as §1

duvelisib = compound: C[C@H](Nc1ncnc2nc[nH]c12)c1cc2cccc(Cl)c2c(=O)n1-c1ccccc1 [duvelisib]
Procedure, shortened: as §1

gandotinib = compound: Cc1cc(Nc2cc(CN3CCOCC3)c3nc(C)c(Cc4ccc(Cl)cc4F)n3n2)n[nH]1 [gandotinib]
Procedure, shortened: as §1

tozasertib = compound: Cc1cc(Nc2cc(N3CCN(C)CC3)nc(Sc3ccc(NC(=O)C4CC4)cc3)n2)n[nH]1 [tozasertib]
Procedure, shortened: as §1

doramapimod = compound: Cc1ccc(-n2nc(C(C)(C)C)cc2NC(=O)Nc2ccc(OCCN3CCOCC3)c3ccccc23)cc1 [doramapimod]
Procedure, shortened: as §1

bafetinib = compound: Cc1ccc(NC(=O)c2ccc(CN3CC[C@H](N(C)C)C3)c(C(F)(F)F)c2)cc1Nc1nccc(-c2cncnc2)n1 [bafetinib]
Procedure, shortened: as §1

[6] = compound: Cc1cccc(CC(=O)N2CCc3c2ccc(-c2cn(C)c4ncnc(N)c24)c3F)n1
Procedure, shortened: as §1

Measured: log2 fold change

TUBG1 (UniProt P23258)
inactive: alvocidib 0.033 | Tubastatin A -0.065 | [1] 0.035 | defactinib 0.042 | [2] -0.032 | encorafenib -0.019 | [3] 0.039 | alisertib 0.017 | [4] 0.009 | gefitinib 0.019 | lapatinib -0.022 | pictilisib -0.043 | crizotinib -0.024 | [5] -0.017 | duvelisib -0.021 | gandotinib -0.044 | tozasertib -0.025 | doramapimod 0.017 | bafetinib -0.01 | [6] 0.032

UBE2E1 (UniProt P51965)
inactive: alvocidib 0.046 | Tubastatin A -0.07 | [1] 0.018 | defactinib 0.057 | [2] 0.312 | encorafenib -0.03 | [3] -0.022 | alisertib -0.032 | [4] -0.106 | gefitinib -0.087 | lapatinib -0.024 | pictilisib -0.04 | crizotinib 0.203 | [5] 0.097 | duvelisib -0.02 | gandotinib -0.066 | tozasertib -0.01 | doramapimod -0.08 | bafetinib 0.057 | [6] -0.043

UBE2D1 (UniProt P51668)
inactive: alvocidib 0.003 | Tubastatin A -0.045 | [1] 0.06 | defactinib 0.028 | [2] -0.027 | encorafenib -0.025 | [3] -0.042 | alisertib 0.028 | [4] -0.036 | gefitinib 0.106 | lapatinib 0.052 | pictilisib 0.043 | crizotinib 0.01 | [5] -0.012 | duvelisib 0.031 | gandotinib -0.047 | tozasertib 0.081 | doramapimod 0.038 | bafetinib -0.058 | [6] -0.033

UBFD1 (UniProt O14562)
inactive: alvocidib -0.041 | Tubastatin A 0.051 | [1] -0.016 | defactinib -0.014 | [2] 0.034 | encorafenib 0 | [3] -0.016 | alisertib -0.008 | [4] 0.018 | gefitinib 0.002 | lapatinib -0.038 | pictilisib -0.005 | crizotinib -0.003 | [5] -0.047 | duvelisib -0.005 | gandotinib 0.047 | tozasertib 0.002 | doramapimod 0.029 | bafetinib 0.003 | [6] 0.017

UBXN7 (UniProt O94888)
inactive: alvocidib -0.006 | Tubastatin A 0.006 | [1] 0.021 | defactinib 0.001 | [2] 0 | encorafenib 0.014 | [3] -0.105 | alisertib -0.016 | [4] 0.007 | gefitinib -0.017 | lapatinib -0.008 | pictilisib 0 | crizotinib -0.003 | [5] -0.043 | duvelisib 0.005 | gandotinib 0.076 | tozasertib 0.024 | doramapimod 0.001 | bafetinib 0.002 | [6] 0.02

TTN isoform 12 (UniProt Q8WZ42)
inactive: alvocidib -0.119 | Tubastatin A 0.051 | [1] -0.009 | defactinib -0.019 | [2] 0.175 | encorafenib -0.019 | [3] 0.038 | alisertib -0.059 | [4] 0.13 | gefitinib -0.011 | lapatinib -0.06 | pictilisib -0.029 | crizotinib -0.148 | [5] -0.276 | duvelisib -0.113 | gandotinib 0.211 | tozasertib 0.018 | doramapimod 0.023 | bafetinib -0.078 | [6] 0.25

TYMS (UniProt P04818)
inactive: alvocidib 0.015 | Tubastatin A -0.023 | [1] 0.017 | defactinib 0.002 | [2] -0.018 | encorafenib 0.013 | [3] -0.006 | alisertib 0.021 | [4] 0.006 | gefitinib -0.024 | lapatinib -0.007 | pictilisib -0.017 | crizotinib 0.002 | [5] 0.003 | duvelisib 0.018 | gandotinib 0.058 | tozasertib 0.011 | doramapimod -0.019 | bafetinib -0.005 | [6] -0.017

UBXN6 (UniProt Q9BZV1)
inactive: alvocidib 0.014 | Tubastatin A -0.087 | [1] 0.03 | defactinib -0.019 | [2] 0.055 | encorafenib 0.042 | [3] 0.104 | alisertib 0.017 | [4] 0.006 | gefitinib 0.006 | lapatinib -0.075 | pictilisib -0.048 | crizotinib 0.004 | [5] -0.014 | duvelisib -0.028 | gandotinib -0.018 | tozasertib 0.008 | doramapimod 0.017 | bafetinib 0.033 | [6] -0.023

TXNDC17 (UniProt Q9BRA2)
inactive: alvocidib -0.01 | Tubastatin A 0.046 | [1] -0.013 | defactinib 0.014 | [2] 0.08 | encorafenib -0.024 | [3] -0.026 | alisertib -0.012 | [4] 0.02 | gefitinib -0.011 | lapatinib 0.005 | pictilisib -0.007 | crizotinib 0.024 | [5] 0.031 | duvelisib 0.053 | gandotinib 0.006 | tozasertib -0.012 | doramapimod -0.034 | bafetinib 0.03 | [6] -0.016

UBE2M (UniProt P61081)
inactive: alvocidib -0.025 | Tubastatin A 0.038 | [1] 0.002 | defactinib -0.012 | [2] 0.024 | encorafenib -0.003 | [3] -0.071 | alisertib 0.023 | [4] -0.005 | gefitinib -0.046 | lapatinib -0.014 | pictilisib 0.012 | crizotinib -0.03 | [5] 0.011 | duvelisib 0.017 | gandotinib -0.001 | tozasertib 0.013 | doramapimod 0.026 | bafetinib -0.04 | [6] -0.019

Taken from the entries so far (three entries):
UBXN7 (UniProt O94888)
inactive: alvocidib -0.006 | Tubastatin A 0.006 | [1] 0.021 | defactinib 0.001 | [2] 0 | encorafenib 0.014 | [3] -0.105 | alisertib -0.016 | [4] 0.007 | gefitinib -0.017 | lapatinib -0.008 | pictilisib 0 | crizotinib -0.003 | [5] -0.043 | duvelisib 0.005 | gandotinib 0.076 | tozasertib 0.024 | doramapimod 0.001 | bafetinib 0.002 | [6] 0.02

TTN isoform 12 (UniProt Q8WZ42)
inactive: alvocidib -0.119 | Tubastatin A 0.051 | [1] -0.009 | defactinib -0.019 | [2] 0.175 | encorafenib -0.019 | [3] 0.038 | alisertib -0.059 | [4] 0.13 | gefitinib -0.011 | lapatinib -0.06 | pictilisib -0.029 | crizotinib -0.148 | [5] -0.276 | duvelisib -0.113 | gandotinib 0.211 | tozasertib 0.018 | doramapimod 0.023 | bafetinib -0.078 | [6] 0.25

TYMS (UniProt P04818)
inactive: alvocidib 0.015 | Tubastatin A -0.023 | [1] 0.017 | defactinib 0.002 | [2] -0.018 | encorafenib 0.013 | [3] -0.006 | alisertib 0.021 | [4] 0.006 | gefitinib -0.024 | lapatinib -0.007 | pictilisib -0.017 | crizotinib 0.002 | [5] 0.003 | duvelisib 0.018 | gandotinib 0.058 | tozasertib 0.011 | doramapimod -0.019 | bafetinib -0.005 | [6] -0.017

Next part:

TXNRD2 (UniProt Q9NNW7)
inactive: alvocidib -0.006 | Tubastatin A 0.021 | [1] 0.018 | defactinib 0.015 | [2] 0.007 | encorafenib 0.039 | [3] -0.034 | alisertib 0 | [4] 0.008 | gefitinib -0.064 | lapatinib 0 | pictilisib -0.017 | crizotinib 0.003 | [5] -0.046 | duvelisib 0.084 | gandotinib 0.059 | tozasertib -0.042 | doramapimod -0.066 | bafetinib 0.041 | [6] 0.034

UBE2Q1 (UniProt Q7Z7E8)
inactive: alvocidib -0.021 | Tubastatin A -0.013 | [1] 0.039 | defactinib -0.01 | [2] 0.02 | encorafenib 0.013 | [3] -0.039 | alisertib -0.018 | [4] 0.017 | gefitinib 0.023 | lapatinib -0.003 | pictilisib 0.011 | crizotinib 0.016 | [5] -0.022 | duvelisib 0.025 | gandotinib 0.013 | tozasertib 0.006 | doramapimod 0.004 | bafetinib -0.064 | [6] 0.013

UBQLN1 (UniProt Q9UMX0)
inactive: alvocidib 0.06 | Tubastatin A 0.01 | [1] -0.011 | defactinib 0.099 | [2] 0.013 | encorafenib 0.102 | [3] -0.027 | alisertib -0.068 | [4] 0.005 | gefitinib -0.027 | lapatinib 0.026 | pictilisib -0.009 | crizotinib 0.025 | [5] 0.048 | duvelisib 0.04 | gandotinib -0.012 | tozasertib -0.028 | doramapimod -0.065 | bafetinib -0.002 | [6] -0.016

TYW1 (UniProt Q9NV66)
inactive: alvocidib -0.011 | Tubastatin A -0.192 | [1] -0.001 | defactinib 0.016 | [2] -0.008 | encorafenib -0.025 | [3] 0.048 | alisertib 0.118 | [4] -0.06 | gefitinib 0.072 | lapatinib -0.094 | pictilisib -0.084 | crizotinib 0.002 | [5] -0.007 | duvelisib 0.013 | gandotinib -0.037 | tozasertib -0.02 | doramapimod -0.071 | bafetinib -0.18 | [6] 0.015

UBE2D3 isoform 3 (UniProt P61077)
inactive: alvocidib -0.016 | Tubastatin A 0.056 | [1] -0.032 | defactinib 0.004 | [2] 0.025 | encorafenib 0.017 | [3] -0.067 | alisertib 0.016 | [4] 0.007 | gefitinib -0.069 | lapatinib -0.001 | pictilisib 0.034 | crizotinib -0.038 | [5] -0.067 | duvelisib -0.025 | gandotinib 0.019 | tozasertib 0.002 | doramapimod -0.007 | bafetinib -0.009 | [6] 0.014

TWF2 (UniProt Q6IBS0)
inactive: alvocidib -0.034 | Tubastatin A 0.031 | [1] -0.016 | defactinib 0.015 | [2] 0.031 | encorafenib -0.023 | [3] -0.017 | alisertib -0.009 | [4] 0 | gefitinib -0.015 | lapatinib -0.008 | pictilisib -0.052 | crizotinib 0.042 | [5] -0.073 | duvelisib -0.003 | gandotinib 0.034 | tozasertib -0.025 | doramapimod -0.032 | bafetinib -0.006 | [6] 0.07
